Results are given in words; binding and its absence hold for the method and conditions named. Binding seen in cells or lysates may run through a third protein. Some entries that bind do so weakly or less than the wild type.
Target: T1, inhibitor of differentiation 3 (ID3), overexpressed from the ID3 overexpression plasmid (UniProt Q02535)
T1 sequence: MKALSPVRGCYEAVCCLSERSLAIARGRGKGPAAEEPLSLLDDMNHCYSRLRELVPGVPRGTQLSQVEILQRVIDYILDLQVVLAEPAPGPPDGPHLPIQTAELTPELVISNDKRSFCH
Assay: co-IP; lysate of HCT116-Id3 OE cells mixed overnight at 4 °C with anti-Myc agarose beads (anti-IgG agarose beads as control), washed twice with PBS, western blot with anti-MDC1, anti-PPARγ and anti-ID3

Chains of the proteins cited; added tags and fusions are not shown.
UniProt Q14676: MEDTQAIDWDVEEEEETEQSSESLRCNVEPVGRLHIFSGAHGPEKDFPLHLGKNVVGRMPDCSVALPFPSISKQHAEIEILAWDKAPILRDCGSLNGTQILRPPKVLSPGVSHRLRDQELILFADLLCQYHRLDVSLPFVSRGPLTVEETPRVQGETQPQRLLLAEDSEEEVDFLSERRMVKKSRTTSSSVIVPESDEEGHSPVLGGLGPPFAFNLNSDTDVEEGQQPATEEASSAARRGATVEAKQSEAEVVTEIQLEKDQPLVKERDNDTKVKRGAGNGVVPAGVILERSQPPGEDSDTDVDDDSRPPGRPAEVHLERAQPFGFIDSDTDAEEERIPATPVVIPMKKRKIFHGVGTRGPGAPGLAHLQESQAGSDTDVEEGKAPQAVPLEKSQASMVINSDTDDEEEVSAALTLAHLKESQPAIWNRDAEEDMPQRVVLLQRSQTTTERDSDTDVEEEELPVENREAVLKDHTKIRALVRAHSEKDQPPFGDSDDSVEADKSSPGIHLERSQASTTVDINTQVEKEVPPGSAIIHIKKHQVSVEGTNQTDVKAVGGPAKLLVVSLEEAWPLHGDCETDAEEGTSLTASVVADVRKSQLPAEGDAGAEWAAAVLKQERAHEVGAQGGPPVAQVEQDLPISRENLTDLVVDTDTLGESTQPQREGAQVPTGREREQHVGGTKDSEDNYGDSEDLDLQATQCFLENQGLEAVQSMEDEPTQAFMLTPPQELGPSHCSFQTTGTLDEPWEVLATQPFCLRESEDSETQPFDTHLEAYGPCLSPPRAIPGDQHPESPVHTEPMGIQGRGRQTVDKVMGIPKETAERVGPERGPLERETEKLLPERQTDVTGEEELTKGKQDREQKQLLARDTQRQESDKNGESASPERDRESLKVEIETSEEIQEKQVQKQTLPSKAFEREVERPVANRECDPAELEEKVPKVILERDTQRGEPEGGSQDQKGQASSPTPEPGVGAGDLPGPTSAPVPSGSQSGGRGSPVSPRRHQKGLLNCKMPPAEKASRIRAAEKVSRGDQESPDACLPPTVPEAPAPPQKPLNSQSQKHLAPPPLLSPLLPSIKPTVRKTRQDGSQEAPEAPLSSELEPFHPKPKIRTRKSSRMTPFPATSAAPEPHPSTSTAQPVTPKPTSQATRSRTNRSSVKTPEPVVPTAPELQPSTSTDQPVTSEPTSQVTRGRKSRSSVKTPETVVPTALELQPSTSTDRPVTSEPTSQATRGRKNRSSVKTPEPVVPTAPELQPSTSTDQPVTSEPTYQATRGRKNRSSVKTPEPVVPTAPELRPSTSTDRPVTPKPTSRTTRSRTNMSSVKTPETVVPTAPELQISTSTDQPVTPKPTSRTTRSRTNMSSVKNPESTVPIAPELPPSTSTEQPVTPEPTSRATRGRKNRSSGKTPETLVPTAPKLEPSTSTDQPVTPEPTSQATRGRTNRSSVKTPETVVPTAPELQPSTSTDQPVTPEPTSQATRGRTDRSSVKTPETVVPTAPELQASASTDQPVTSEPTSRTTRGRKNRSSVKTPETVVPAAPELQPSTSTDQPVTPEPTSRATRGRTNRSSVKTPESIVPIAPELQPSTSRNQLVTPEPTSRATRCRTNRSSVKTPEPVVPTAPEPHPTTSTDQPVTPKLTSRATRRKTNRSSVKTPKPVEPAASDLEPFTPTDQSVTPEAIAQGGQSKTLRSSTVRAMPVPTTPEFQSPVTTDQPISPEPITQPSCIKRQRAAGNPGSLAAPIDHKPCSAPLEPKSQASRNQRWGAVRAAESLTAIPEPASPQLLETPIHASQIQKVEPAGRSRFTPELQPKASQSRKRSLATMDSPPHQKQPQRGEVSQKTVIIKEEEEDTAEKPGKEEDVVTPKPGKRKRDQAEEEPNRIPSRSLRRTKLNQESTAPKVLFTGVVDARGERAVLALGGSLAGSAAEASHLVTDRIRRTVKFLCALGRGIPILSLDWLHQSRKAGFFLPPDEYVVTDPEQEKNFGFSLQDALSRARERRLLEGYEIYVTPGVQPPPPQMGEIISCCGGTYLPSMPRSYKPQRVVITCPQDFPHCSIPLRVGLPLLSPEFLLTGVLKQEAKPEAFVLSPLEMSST
UniProt P37231: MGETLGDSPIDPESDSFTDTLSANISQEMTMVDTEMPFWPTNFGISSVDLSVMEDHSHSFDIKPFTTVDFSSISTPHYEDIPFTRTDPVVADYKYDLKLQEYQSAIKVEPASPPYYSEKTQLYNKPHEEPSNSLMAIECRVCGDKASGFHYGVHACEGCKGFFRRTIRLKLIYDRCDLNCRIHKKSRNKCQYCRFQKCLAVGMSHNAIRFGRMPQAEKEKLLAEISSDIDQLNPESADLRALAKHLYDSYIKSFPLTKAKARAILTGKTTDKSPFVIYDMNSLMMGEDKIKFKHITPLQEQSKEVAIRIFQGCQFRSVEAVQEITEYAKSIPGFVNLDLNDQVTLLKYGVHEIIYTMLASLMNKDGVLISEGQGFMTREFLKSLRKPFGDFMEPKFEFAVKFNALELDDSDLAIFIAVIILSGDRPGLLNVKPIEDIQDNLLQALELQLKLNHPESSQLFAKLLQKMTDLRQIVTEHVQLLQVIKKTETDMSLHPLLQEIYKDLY

binding | Substance
binds | Mediator of DNA damage checkpoint 1 (MDC1), endogenous (from UniProt Q14676 1-2089)
binds | Peroxisome Proliferator-Activated Receptor γ (PPARγ), endogenous (from UniProt P37231 1-505)

Reference: publication PMC10176823
